In patent US9587220B2, “Method for inducing cardiac differentiation of pluripotent stem cell” (Kyoto University, priority 2012, dated 2017):
Some of these results come from one statement about several compounds together.

Tested on: IMR90-1 hiPSCs
Assay: Cardiac differentiation with BIO and CHIR99021 (Days 0-3) followed by WNT inhibitors, serum-free or serum medium
Assay type: cell-based, human
Conditions: after BIO and CHIR99021 Days 0-3; both serum-containing and serum-free albumin-containing medium
Experimental: After pre-culture in Petri dishes as described above, cell aggregates were attached to culture dishes coated with gelatin (Sigma G2625) or human laminin 211 (BioLamina, Sweden) at 3-10×10^5 cells cm^-2, in serum-free cardiac differentiation medium: IMDM (Sigma) containing 1% MEM non-essential amino acid solution (Sigma), 1% Penicillin-Streptomycin (Gibco), 2 mM L-glutamine (Sigma), 0.5 mM L-carnitine (Sigma), 0.001% 2-Mercapcoethanol (Gibco), and 1-2% bovine serum albumin (Wako, Japan) or 0.4% human serum albumin (Sigma), with 5 μM CHIR99021 (Axon) and 2 μM BIO (Calbiochem). On Days 3-9, 10 μM KY02111 and/or other WNT inhibitors (XAV939 and/or IWP-2) were added to cell cultures, and the medium was changed every 2 d. On Day 15, the cardiac colonies were incubated with the protease solution for 5-10 min, until all colonies were detached from the bottom of the wells. […] The number of cTnT, αActinin, NKX2.5, HCN4, and Vimentin-positive cells were counted from three random areas, using the Metamorph imaging system (Molecular Devices). […] Cells were analyzed using a FACS CantoII flow cytometer (BD Biosciences). Data was analyzed using […] software (BD Biosciences).

COc1ccc(CCC(=O)Nc2nc3ccc(Cl)cc3s2)cc1OC [KY02111, 2-(3-(3,4-dimethoxyphenyl)propanamide)-6-chlorobenzothiazole]
differentiation of IMR90-1 hiPSCs: 84-98%
